The supplement of paper PMC3334620
Over roughly 33,000 sequences, “E-score (-0.5 to 0.5)” has its median near -0.0034; the highest 2% begin near 0.25. This is one part of the list.

Target: T1, Yap3 (UniProt P38749)
T1 sequence: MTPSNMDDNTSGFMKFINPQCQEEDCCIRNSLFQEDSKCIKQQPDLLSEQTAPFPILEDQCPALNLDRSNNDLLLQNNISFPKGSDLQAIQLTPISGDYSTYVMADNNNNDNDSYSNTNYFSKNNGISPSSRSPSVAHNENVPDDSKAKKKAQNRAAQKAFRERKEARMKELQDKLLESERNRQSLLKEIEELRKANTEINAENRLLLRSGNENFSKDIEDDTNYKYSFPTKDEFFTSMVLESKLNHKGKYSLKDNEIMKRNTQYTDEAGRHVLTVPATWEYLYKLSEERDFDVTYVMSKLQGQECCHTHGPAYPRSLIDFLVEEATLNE
Assay: PBM E-score (8-mer binding enrichment) (E-score (-0.5 to 0.5)); higher = stronger / more preferred TF binding
Settings: protein concentration: 100 nM; construct: GST-full length
Method: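 Universal 'all 10-mer' protein binding microarrays (Agilent AMADID 015681) probed with GST-tagged S. cerevisiae TFs (full-length or DBD) made by in vitro transcription/translation (PURExpress), about 100-200 nM. Bound TF was detected with fluorescent anti-GST. Each ungapped 8-mer (which stands for itself and its reverse complement) is scored by the PBM enrichment score (E-score), a modified Wilcoxon-Mann-Whitney statistic from -0.5 to +0.5, computed with the Universal PBM Analysis Suite. Scale: above 0.35 generally sequence-specific binding.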

Sequence | PBM E-score
CAGAGTGA | -0.0361
CGCTGGCC | -0.331
CCAGAGAG | -0.212
GTAGCCAA | 0.0503
AAACCGTT | 0.0314
GTAGGCGA | -0.0752
AGTATAAG | 0.193
CGACAGTC | -0.259
CGAGAGTA | 0.0233
AGCAGCTG | -0.0113
TAGGTACA | -0.0609
CAACATCA | 0.21
CCTGCGGA | -0.0449
CCACGATC | 0.0612
GTCTTTGA | -0.19
AGCAGACG | -0.0831
ACGTTTAT | 0.204
CGCTGCCA | -0.154
CATGCATC | 0.102
ACCAAAAT | 0.0693
CGATAACG | 0.0879
AGGCCAGC | -0.275
GATAACGC | 0.167
CAGATACA | 0.141
ACCCCCCC | -0.457

Sequence | PBM E-score
ACCCCGGC | -0.283
CTCAAGTA | -0.0341
AGTTGCGC | -0.0199
ATAGACAA | 0.129
ATGGATAG | 0.0546
GAATACGA | 0.17
TCACATGA | -0.111
GGGGACAA | -0.0721
CACGAGTA | 0.0471
AACTACTG | -0.00432
CCCCTGCC | -0.2
AACAGGGT | -0.11
GGATTGAA | 0.14
ATTCGAGC | -0.0756
GTATGAAA | 0.29
TATAGACA | 0.0844
AGGCGTTC | -0.291
GATGAGGA | -0.00505
AAGTTAGT | 0.164
GGGGGGGA | -0.404
AAGTAACG | 0.0352
ACAGGGTA | 0.0598
GGGGGTAA | -0.193
AGACAAGC | 0.00433
CTTCGGAC | -0.027

Fetched one by one from the list above, three records:
Sequence | PBM E-score
CTCAAGTA | -0.0341
CACGAGTA | 0.0471
GATGAGGA | -0.00505

Following part.

Sequence | PBM E-score
TGATACCA | 0.00172
CTGACGTC | 0.0626
ATCGCCCA | -0.134
AAATCGAC | 0.181
GAGAGATC | 0.0432
AATTGGGT | 0.331
TCGATGCA | -0.0467
CGTAGCAC | -0.00594
AAACGCTC | -0.104
CCTCATAA | -0.00385
AGTTGGTG | 0.033
ACATGGCT | -0.0604
ATGGATTA | -0.0177
ATCATTGC | -0.00719
GCGGCGAC | -0.0995
ACAACCAC | 0.0359
CCACCGGA | 0.104
TCTGACCA | -0.0272
CCTCGCAC | -0.133
ACTCTGGG | -0.12
AGCGCTCG | -0.154
ACACGACA | 0.213
GTAGAGCA | -0.0569
TCCGTAAA | 0.0294
AGCCGGCG | -0.0864

Sequence | PBM E-score
CTTCTCAC | 0.121
CGACCCAG | -0.23
CCCTCGGA | -0.111
CAGGCCGA | -0.114
ACAACGAT | 0.0459
TGCAGCAA | 0.143
GAAACGCC | -0.0431
AGTTTCGG | 0.0851
ATCGCTGC | 0.017
ATGCAATG | -0.0833
AGACAGGA | 0.0897
CCGGGGGA | -0.287
GAGGCATC | -0.206
CCCTGTGC | -0.204
GATGTTGA | 0.137
CTTCCTTA | 0.0813
CAAGCTGA | 0.109
CTGATCTC | -0.0723
CAAATCTC | 0.0919
GCACAACC | -0.0856
ATTATGGA | 0.108
AAATGGGT | 0.122
CAGTTGCC | -0.181
GGGGTTTA | -0.0968
AAGGGGCA | -0.105

Sequence | PBM E-score
ACCCTACT | -0.0662
CCACCGCG | 0.0617
TACGTCGA | 0.0252
TACTCCGA | -0.0387
CTAACATC | 0.0918
ACAAGGCT | -0.157
AATCGTCC | -0.0198
CCAGTGAG | -0.0951
CCTGTCCA | -0.14
TCATGTCA | 0.0163
CCAAGTCC | -0.242
AAGGCGCC | -0.0909
TAAAGCCA | 0.0954
ATGAGCCC | -0.147
GCGTTGGA | -0.102
CCAGCCTC | -0.272
CATTATAC | 0.163
CTCATTCA | 0.0351
CTTAAGAA | 0.138
AAACGGAC | -0.155
GAGCCTGC | -0.101
GCCCGGAA | -0.0658
CAGAATAG | 0.0261
ACGTCCTG | -0.136
CTGGGATC | -0.245

Sequence | PBM E-score
TTAGCTAA | 0.159
ACTACAAA | 0.201
ATGTCGAG | -0.00735
GGTCGAGA | -0.121
ATTGCGTG | -0.146
ACGATCCG | -0.034
ACCACAAG | -0.227
CGGTCCGC | -0.174
TCCTGAGA | -0.102
AGAGGATC | -0.212
CCCAAAAA | 0.0172
TAATCGTA | 0.167
AGTTCAAT | -0.0531
CCAAGAAC | -0.0493
CCGCCTAC | 0.00031
ACCTAATG | -0.233
GCACACAC | -0.0221
GTCCACAA | -0.0537
AAGTAATA | 0.158
AACGTAAG | 0.0405
CTTGCAGC | -0.15
ATCTTTAC | 0.135
CAATACTG | 0.00538
GATTCTGA | -0.081
AACTGACT | 0.0319

Sequence | PBM E-score
GCAAGCTA | -0.0808
ATTAGATC | 0.0781
CACCTACA | -0.058
ATCGGATG | -0.0732
GCGTACAC | 0.0362
CACGGTCA | 0.0268
AAGTCAGA | -0.0217
AAGCTTGA | -0.0612
AGCCGGCC | -0.0368
ACCTACTC | 0.0226
AGTATGTC | 0.135
GCCCAAAC | -0.0764
GAAATATC | 0.0879
ATTGCGTC | 0.101
CACCCAAC | -0.142
AACTTATG | 0.145
CGTAATTC | 0.296
AAAGTCTT | 0.00865
TTGAAAAA | 0.21
AGAGAAGA | -0.0231
CCCCCAGA | -0.402
ACTCTACT | 0.0768

In another format: results already given.
Sequence,PBM E-score
CCCAAAAA,0.0172
TAATCGTA,0.167
AGTTCAAT,-0.0531
CCAAGAAC,-0.0493
CCGCCTAC,0.00031
ACCTAATG,-0.233
GCACACAC,-0.0221
GTCCACAA,-0.0537
AAGTAATA,0.158
AACGTAAG,0.0405
CTTGCAGC,-0.15
ATCTTTAC,0.135
CAATACTG,0.00538
GATTCTGA,-0.081
AACTGACT,0.0319
GCAAGCTA,-0.0808
ATTAGATC,0.0781
CACCTACA,-0.058
ATCGGATG,-0.0732
GCGTACAC,0.0362
CACGGTCA,0.0268
AAGTCAGA,-0.0217
AAGCTTGA,-0.0612
AGCCGGCC,-0.0368
ACCTACTC,0.0226
AGTATGTC,0.135
GCCCAAAC,-0.0764
GAAATATC,0.0879
ATTGCGTC,0.101
CACCCAAC,-0.142
AACTTATG,0.145
CGTAATTC,0.296
AAAGTCTT,0.00865
TTGAAAAA,0.21
AGAGAAGA,-0.0231
